Values from PubChem BioAssay AID743454 (Peter MacCallum Cancer Centre, 2014)

- Aim: 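Search for knock-downs that restore vorinostat killing in resistant colon cancer cells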 (primary screen)
- System: human HCT116-VR colon cancer cells, selected for vorinostat resistance
- Reagents: siRNA pool against human genes, 40 nM siRNA pool
- Time to read-out: vorinostat for 24 h, read-out about 72 h after transfection
- Challenge: vorinostat at 2.5 µM final
- Read-out: 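Cell viability by CellTiter-Fluor and caspase 3/7 activity by luminescence, each scaled to mock wells per plate, duplicates averaged, then robust z-scored over all plates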
- Direction: viability robust z-score: higher = more viable cells than screen typical; caspase robust z-score: higher = more caspase 3/7 activity than screen typical
- Call rule: 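a knock-down is a hit when classed RV1 or RV2 for lowered viability, or CA1 or CA2 for caspase activation; those lethal without drug were dropped; hits were retested singly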
Here is an unselected part of about 18,000 reagents. 450 of all reagents (2.5%) were called active. 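Single biological run; no consistent viability z cut-off exists, so the class columns, not z-scores, define the calls.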 Unmarked entries are inactive. The numbers tell different reagents against one gene apart.

PRY2 (PTPN13 like Y-linked 2) — viability hit class = no change; caspase hit class = no change; viability robust z-score = 0.45; caspase robust z-score = 2.13
PRAM1 (PML-RARA regulated adaptor molecule 1) — viability hit class = no change; caspase hit class = no change; viability robust z-score = -1.5; caspase robust z-score = 0.46
SPRR2A (small proline rich protein 2A) — viability hit class = no change; caspase hit class = no change; viability robust z-score = -1.26; caspase robust z-score = -0.31
HNRNPU (heterogeneous nuclear ribonucleoprotein U) — viability hit class = no change; caspase hit class = no change; viability robust z-score = -0.3; caspase robust z-score = 2.7
EFCAB6 (EF-hand calcium binding domain 6) — viability hit class = no change; caspase hit class = no change; viability robust z-score = 0.54; caspase robust z-score = 0.13
CDPF1 (cysteine rich DPF motif domain containing 1) — viability hit class = no change; caspase hit class = no change; viability robust z-score = -1.38; caspase robust z-score = -0.96
CAPN1 (calpain 1) — viability hit class = no change; caspase hit class = no change; viability robust z-score = 0.97; caspase robust z-score = -0.5
MECOM (MDS1 and EVI1 complex locus) #1 — viability hit class = no change; caspase hit class = no change; viability robust z-score = -0.18; caspase robust z-score = 0.02
MECOM (MDS1 and EVI1 complex locus) #2 — viability hit class = no change; caspase hit class = no change; viability robust z-score = 0.86; caspase robust z-score = -0.94
CCBE1 (collagen and calcium binding EGF domains 1) — viability hit class = RV2 (reduced viability) (active); caspase hit class = no change; viability robust z-score = -2.92; caspase robust z-score = 2.66
REC8 (REC8 meiotic cohesin complex component) — viability hit class = no change; caspase hit class = no change; viability robust z-score = -0.8; caspase robust z-score = 0.89
CT45A5 (cancer/testis antigen family 45 member A5) — viability hit class = no change; caspase hit class = no change; viability robust z-score = 0.44; caspase robust z-score = -0.62
TRIM22 (tripartite motif containing 22) — viability hit class = no change; caspase hit class = no change; viability robust z-score = 0.79; caspase robust z-score = 0.91
MYPOP (Myb related transcription factor, partner of profilin) — viability hit class = no change; caspase hit class = no change; viability robust z-score = 0.12; caspase robust z-score = 3.55
C1QBP (complement C1q binding protein) — viability hit class = no change; caspase hit class = no change; viability robust z-score = 0.6; caspase robust z-score = 0.43
BRD8 (bromodomain containing 8) — viability hit class = no change; caspase hit class = no change; viability robust z-score = -0.57; caspase robust z-score = 0.68
TBC1D1 (TBC1 domain family member 1) — viability hit class = no change; caspase hit class = no change; viability robust z-score = 0.64; caspase robust z-score = -0.52
UBXN11 (UBX domain protein 11) — viability hit class = no change; caspase hit class = no change; viability robust z-score = -1.27; caspase robust z-score = 3.15
ASCL2 (achaete-scute family bHLH transcription factor 2) — viability hit class = no change; caspase hit class = no change; viability robust z-score = 1.23; caspase robust z-score = 1.87
ADAMTS6 (ADAM metallopeptidase with thrombospondin type 1 motif 6) — viability hit class = no change; caspase hit class = no change; viability robust z-score = -0.9; caspase robust z-score = 1.5
LRRC66 (leucine rich repeat containing 66) — viability hit class = no change; caspase hit class = no change; viability robust z-score = -0.15; caspase robust z-score = -1.48

Hits, of those listed so far:
CCBE1 (collagen and calcium binding EGF domains 1) — viability hit class = RV2 (reduced viability) (active); caspase hit class = no change; viability robust z-score = -2.92; caspase robust z-score = 2.66
